From PMC6713736
These are yes or no findings as the source states them, for the method shown. In cells and extracts the contact can be indirect. A yes stands for co-enrichment or nearness to the bait. Other partners may have been found.

Amino acid sequences for entries named in this document (tags omitted).
UniProt Q9HCM4: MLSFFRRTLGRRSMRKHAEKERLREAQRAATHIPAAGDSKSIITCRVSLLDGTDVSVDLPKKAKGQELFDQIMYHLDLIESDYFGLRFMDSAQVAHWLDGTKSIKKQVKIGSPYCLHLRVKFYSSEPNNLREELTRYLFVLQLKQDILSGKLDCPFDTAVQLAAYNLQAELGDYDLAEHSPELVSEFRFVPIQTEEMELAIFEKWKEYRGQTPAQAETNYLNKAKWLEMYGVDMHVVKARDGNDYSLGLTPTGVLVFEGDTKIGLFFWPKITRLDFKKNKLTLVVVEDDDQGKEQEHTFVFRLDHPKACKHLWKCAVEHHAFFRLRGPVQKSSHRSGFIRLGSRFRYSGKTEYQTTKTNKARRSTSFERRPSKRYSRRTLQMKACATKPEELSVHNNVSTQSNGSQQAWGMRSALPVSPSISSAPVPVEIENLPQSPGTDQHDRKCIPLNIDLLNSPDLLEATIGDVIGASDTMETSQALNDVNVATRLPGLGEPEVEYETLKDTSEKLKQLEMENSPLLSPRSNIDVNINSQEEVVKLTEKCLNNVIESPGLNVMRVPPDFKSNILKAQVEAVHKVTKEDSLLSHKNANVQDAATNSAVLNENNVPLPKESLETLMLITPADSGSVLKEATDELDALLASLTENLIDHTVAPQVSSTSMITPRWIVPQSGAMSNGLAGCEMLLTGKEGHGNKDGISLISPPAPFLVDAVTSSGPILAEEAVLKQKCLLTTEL
UniProt Q9UDY2: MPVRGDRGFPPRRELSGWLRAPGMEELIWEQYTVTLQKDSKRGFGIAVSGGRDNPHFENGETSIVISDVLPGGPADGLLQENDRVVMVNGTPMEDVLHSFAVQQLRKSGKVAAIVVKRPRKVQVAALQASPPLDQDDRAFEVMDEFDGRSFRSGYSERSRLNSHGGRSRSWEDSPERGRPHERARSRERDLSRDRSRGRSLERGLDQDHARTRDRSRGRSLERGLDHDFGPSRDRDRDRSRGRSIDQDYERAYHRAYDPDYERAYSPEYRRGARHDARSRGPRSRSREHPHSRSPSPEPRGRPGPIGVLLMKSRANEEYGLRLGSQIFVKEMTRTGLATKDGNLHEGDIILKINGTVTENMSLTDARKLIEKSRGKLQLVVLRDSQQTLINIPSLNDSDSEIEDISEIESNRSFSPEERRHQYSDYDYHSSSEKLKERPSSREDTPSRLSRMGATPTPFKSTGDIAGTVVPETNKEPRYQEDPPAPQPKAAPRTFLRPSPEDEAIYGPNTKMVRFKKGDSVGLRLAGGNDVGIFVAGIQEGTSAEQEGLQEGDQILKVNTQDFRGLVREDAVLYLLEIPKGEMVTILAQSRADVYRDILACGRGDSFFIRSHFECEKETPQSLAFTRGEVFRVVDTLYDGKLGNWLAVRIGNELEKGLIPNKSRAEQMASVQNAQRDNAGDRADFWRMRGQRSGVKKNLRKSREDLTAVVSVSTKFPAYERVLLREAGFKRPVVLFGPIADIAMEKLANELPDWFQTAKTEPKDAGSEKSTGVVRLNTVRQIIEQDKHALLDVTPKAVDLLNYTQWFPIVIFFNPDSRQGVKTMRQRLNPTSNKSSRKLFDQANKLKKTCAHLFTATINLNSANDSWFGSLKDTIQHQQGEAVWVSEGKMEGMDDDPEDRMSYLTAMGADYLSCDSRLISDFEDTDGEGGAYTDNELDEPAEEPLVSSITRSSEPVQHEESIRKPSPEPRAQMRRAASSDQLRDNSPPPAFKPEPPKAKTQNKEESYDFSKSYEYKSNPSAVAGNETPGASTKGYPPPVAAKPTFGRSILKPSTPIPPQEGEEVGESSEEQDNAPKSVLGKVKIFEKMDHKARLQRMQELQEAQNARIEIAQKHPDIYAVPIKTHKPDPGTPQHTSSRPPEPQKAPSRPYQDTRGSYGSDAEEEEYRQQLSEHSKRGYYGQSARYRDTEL
UniProt Q07157: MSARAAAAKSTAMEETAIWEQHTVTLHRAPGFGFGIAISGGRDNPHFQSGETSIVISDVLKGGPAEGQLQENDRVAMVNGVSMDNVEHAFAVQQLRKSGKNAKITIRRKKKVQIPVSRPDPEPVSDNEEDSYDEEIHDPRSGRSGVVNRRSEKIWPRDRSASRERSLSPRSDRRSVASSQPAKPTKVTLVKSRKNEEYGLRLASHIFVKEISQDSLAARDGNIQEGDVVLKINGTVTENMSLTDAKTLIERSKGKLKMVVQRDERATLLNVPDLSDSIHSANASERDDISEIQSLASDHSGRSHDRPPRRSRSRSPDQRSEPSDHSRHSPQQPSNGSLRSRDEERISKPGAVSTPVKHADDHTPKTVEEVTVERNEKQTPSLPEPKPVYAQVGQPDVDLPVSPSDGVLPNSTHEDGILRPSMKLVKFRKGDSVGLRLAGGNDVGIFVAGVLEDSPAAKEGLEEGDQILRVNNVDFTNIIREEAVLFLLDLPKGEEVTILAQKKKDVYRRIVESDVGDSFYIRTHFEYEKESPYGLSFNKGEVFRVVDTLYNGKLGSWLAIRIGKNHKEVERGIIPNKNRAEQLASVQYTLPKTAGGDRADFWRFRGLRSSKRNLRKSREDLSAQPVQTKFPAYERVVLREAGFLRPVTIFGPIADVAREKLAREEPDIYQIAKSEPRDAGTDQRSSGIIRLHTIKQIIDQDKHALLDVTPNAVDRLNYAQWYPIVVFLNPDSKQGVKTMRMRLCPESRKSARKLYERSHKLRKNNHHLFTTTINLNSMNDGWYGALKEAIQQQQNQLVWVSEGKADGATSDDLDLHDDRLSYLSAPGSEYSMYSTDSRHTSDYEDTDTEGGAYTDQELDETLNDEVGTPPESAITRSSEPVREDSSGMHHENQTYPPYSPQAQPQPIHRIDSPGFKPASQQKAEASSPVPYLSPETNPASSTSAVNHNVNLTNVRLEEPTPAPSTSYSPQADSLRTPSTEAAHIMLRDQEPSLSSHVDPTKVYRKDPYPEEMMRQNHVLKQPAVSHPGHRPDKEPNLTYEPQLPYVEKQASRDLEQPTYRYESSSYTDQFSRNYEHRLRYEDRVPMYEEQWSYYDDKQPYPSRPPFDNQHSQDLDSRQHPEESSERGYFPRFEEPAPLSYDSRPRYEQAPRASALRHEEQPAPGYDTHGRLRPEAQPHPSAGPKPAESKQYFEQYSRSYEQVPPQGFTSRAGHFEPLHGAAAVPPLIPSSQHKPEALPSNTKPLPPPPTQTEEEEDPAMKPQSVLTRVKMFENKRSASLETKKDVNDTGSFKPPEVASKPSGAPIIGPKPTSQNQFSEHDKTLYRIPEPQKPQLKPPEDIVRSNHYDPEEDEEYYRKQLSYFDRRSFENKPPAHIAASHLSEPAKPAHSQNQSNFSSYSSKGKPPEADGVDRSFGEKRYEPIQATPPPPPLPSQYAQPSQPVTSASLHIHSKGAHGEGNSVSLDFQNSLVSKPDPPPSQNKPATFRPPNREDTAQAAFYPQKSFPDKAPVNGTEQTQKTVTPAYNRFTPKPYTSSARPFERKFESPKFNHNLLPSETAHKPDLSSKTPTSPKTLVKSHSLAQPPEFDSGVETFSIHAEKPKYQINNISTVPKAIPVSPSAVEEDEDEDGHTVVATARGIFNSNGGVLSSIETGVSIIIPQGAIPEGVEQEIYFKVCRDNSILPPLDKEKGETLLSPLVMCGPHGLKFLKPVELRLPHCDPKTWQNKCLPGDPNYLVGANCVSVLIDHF

Biological target: FLAG-EPB41L5 full length (human) (UniProt Q9HCM4)
Experiment: affinity purification with mass spectrometry; immuno-affinity purification of FLAG-EPB41L5 from stably expressing HEK293T cells; trypsin digestion, mass spectrometry

binding | Substance
binds | ZO2 (from UniProt Q9UDY2 1-1190)
binds | ZO1 (from UniProt Q07157 1-1748)
